{"source": "patent US6572788B2", "about": "“Amine oxide wood preservatives” (Lonza, Inc., priority 2000, dated 2003)", "key": {"[1]": {"assay": "Corrosivity on steel substrates (carbon steel coupon, two weeks)", "conditions": "negative weight loss means a gain in weight"}, "[2]": {"assay": "Leaching in water and soil of treated southern yellow pine wafers", "conditions": "for Concentration of Preservative in Soil after 7 days / Concentration of Preservative in Wafer after 7 days: leaching in water and soil, shaken 7 days; for Concentration of Preservative in Soil after 5 days / Concentration of Preservative in Wafer after 5 days: wafer treated with water and soil"}, "[3]": {"assay": "Water uptake test (waterproofing efficacy), weathered ponderosa pine wafers"}}, "data": [{"smiles": "CCCCCCCCCC[N+](C)(C)[O-]", "note": "[Decyldimethylamine oxide]", "values": [{"measurement": "Weight Lost", "setting": "[1]", "result": "−0.02", "unit": "%"}]}, {"smiles": "CCCCCCCCCC[N+](C)(C)CCCCCCCCCC.[Cl-]", "note": "[Didecyldimethyl ammonium chloride, didecyldimethylammonium chloride, reference compound]", "values": [{"measurement": "Concentration of Preservative in Soil after 7 days", "setting": "[2]", "result": 0.5, "unit": "% w/w"}, {"measurement": "Concentration of Preservative in Wafer after 7 days", "setting": "[2]", "result": 0.95, "unit": "% w/w"}, {"measurement": "Concentration of Preservative in Soil after 5 days", "setting": "[2]", "result": 0.4, "unit": "% w/w"}, {"measurement": "Concentration of Preservative in Wafer after 5 days", "setting": "[2]", "result": 1.1, "unit": "% w/w"}, {"measurement": "Water Uptake % of Weathered Wood", "setting": "[3]; Day 0, Table 13", "result": 62, "unit": "%"}, {"measurement": "Water Uptake % of Weathered Wood", "setting": "[3]; Day 100, Table 13", "result": 73, "unit": "%"}, {"measurement": "Weight Lost", "setting": "[1]; listed as 0.3% didecyldimethyl ammonium chloride", "result": 0.44, "unit": "%"}, {"measurement": "Weight Lost", "setting": "[1]; listed as 1% didecyldimethyl ammonium chloride", "result": 0.40, "unit": "%"}]}, {"smiles": "CCCCCCCCCCCC[N+](C)(C)[O-]", "note": "[Dodecyl dimethylamine oxide, dodecyl dimethylamine oxide]", "values": [{"measurement": "Concentration of Preservative in Soil after 7 days", "setting": "[2]", "result": 0.15, "unit": "% w/w"}, {"measurement": "Concentration of Preservative in Wafer after 7 days", "setting": "[2]", "result": 0.5, "unit": "% w/w"}, {"measurement": "Concentration of Preservative in Soil after 5 days", "setting": "[2]", "result": "05", "unit": "% w/w"}, {"measurement": "Concentration of Preservative in Wafer after 5 days", "setting": "[2]", "result": 0.7, "unit": "% w/w"}]}, {"smiles": "CCCCCCCCCCCCCCCC[N+](C)(C)[O-]", "note": "[Hexadecyl dimethylamine oxide, hexadecyl dimethylamine oxide]", "values": [{"measurement": "Concentration of Preservative in Soil after 7 days", "setting": "[2]", "result": 0.33, "unit": "% w/w"}, {"measurement": "Concentration of Preservative in Wafer after 7 days", "setting": "[2]", "result": 1.5, "unit": "% w/w"}, {"measurement": "Weight Lost", "setting": "[1]", "result": "−0.02^1%"}]}, {"smiles": "CCCCCCCCCCCCCCCCCC[N+](C)(C)Cc1ccccc1.[Cl-]", "note": "[Octadecylbenzyl dimethyl ammonium chloride, reference compound]", "values": [{"measurement": "Concentration of Preservative in Soil after 5 days", "setting": "[2]", "result": 0.1, "unit": "% w/w"}, {"measurement": "Concentration of Preservative in Wafer after 5 days", "setting": "[2]", "result": 1.3, "unit": "% w/w"}]}]}
